Targets include Myc-tagged PSMD2 (human) (UniProt Q13200); Myc-tagged DDX17 (human) (UniProt Q92841); Myc-tagged MTA2 (human) (UniProt O94776).
What all share (test): co-IP; lysates (RIPA buffer) of CSIAN cells co-transfected with Flag-tagged CSB and a Myc-tagged protein, 24 hr post transfection; anti-c-myc agarose overnight; Western blot with anti-Flag
Background: In western blotting, separated proteins are transferred to a membrane and probed.

Chains of the proteins cited; added tags and fusions are not shown.
UniProt Q13200: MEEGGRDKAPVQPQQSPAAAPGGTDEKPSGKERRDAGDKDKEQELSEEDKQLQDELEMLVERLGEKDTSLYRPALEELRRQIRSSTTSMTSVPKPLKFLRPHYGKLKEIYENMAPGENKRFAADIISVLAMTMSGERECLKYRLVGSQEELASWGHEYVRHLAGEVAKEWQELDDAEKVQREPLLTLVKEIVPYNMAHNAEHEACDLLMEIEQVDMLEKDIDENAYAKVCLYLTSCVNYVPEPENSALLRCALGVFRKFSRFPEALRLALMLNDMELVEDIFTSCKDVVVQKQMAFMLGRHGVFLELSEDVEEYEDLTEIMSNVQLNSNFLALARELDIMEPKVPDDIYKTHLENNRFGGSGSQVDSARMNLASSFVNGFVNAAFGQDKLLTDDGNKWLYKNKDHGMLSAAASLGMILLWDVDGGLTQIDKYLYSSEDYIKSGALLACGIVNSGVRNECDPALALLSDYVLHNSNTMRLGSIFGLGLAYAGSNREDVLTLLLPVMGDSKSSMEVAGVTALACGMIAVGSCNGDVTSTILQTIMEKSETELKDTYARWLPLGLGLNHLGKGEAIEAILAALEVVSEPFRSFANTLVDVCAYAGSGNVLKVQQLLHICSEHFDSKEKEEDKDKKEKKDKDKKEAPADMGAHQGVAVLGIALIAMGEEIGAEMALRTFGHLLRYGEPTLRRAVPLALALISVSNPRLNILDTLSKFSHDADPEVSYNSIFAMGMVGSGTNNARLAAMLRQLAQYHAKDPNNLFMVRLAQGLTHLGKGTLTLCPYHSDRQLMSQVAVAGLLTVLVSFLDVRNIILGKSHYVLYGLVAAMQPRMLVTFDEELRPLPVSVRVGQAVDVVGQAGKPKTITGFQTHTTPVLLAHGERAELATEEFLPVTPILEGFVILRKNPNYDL
UniProt Q92841: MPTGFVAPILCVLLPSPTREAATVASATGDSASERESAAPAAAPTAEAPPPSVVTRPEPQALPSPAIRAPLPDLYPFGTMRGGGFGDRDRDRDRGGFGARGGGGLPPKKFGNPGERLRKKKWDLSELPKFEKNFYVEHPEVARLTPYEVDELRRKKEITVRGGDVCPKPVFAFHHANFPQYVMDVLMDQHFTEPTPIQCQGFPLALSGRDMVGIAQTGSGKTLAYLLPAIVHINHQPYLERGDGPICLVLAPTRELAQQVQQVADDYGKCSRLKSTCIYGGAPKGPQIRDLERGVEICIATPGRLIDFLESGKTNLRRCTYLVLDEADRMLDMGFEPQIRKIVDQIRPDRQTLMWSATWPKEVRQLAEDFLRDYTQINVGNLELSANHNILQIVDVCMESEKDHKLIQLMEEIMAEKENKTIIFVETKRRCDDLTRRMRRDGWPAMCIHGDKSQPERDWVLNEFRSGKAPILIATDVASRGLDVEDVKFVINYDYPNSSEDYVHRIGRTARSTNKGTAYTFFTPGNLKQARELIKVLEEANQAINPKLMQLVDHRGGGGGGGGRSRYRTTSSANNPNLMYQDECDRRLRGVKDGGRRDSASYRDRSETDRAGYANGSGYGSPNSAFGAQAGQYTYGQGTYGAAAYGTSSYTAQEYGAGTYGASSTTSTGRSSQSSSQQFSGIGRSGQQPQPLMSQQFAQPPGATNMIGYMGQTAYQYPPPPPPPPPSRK
UniProt O94776: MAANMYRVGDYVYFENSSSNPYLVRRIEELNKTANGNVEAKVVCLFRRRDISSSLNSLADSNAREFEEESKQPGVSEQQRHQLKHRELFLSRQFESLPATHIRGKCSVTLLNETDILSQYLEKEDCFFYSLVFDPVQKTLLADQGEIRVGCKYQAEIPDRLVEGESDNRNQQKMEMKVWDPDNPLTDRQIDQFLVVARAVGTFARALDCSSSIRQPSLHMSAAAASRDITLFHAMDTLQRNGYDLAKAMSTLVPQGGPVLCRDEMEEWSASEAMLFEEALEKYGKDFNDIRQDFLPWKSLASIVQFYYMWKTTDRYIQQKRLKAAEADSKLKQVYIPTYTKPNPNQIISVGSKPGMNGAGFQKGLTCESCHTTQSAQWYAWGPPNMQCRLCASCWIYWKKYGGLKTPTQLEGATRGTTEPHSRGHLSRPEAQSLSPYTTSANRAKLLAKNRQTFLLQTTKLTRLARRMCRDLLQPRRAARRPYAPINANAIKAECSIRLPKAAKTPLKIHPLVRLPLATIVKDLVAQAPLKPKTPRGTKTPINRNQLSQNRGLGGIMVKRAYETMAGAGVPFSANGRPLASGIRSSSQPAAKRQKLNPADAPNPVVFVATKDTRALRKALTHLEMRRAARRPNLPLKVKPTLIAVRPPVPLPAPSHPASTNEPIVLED
UniProt P28370: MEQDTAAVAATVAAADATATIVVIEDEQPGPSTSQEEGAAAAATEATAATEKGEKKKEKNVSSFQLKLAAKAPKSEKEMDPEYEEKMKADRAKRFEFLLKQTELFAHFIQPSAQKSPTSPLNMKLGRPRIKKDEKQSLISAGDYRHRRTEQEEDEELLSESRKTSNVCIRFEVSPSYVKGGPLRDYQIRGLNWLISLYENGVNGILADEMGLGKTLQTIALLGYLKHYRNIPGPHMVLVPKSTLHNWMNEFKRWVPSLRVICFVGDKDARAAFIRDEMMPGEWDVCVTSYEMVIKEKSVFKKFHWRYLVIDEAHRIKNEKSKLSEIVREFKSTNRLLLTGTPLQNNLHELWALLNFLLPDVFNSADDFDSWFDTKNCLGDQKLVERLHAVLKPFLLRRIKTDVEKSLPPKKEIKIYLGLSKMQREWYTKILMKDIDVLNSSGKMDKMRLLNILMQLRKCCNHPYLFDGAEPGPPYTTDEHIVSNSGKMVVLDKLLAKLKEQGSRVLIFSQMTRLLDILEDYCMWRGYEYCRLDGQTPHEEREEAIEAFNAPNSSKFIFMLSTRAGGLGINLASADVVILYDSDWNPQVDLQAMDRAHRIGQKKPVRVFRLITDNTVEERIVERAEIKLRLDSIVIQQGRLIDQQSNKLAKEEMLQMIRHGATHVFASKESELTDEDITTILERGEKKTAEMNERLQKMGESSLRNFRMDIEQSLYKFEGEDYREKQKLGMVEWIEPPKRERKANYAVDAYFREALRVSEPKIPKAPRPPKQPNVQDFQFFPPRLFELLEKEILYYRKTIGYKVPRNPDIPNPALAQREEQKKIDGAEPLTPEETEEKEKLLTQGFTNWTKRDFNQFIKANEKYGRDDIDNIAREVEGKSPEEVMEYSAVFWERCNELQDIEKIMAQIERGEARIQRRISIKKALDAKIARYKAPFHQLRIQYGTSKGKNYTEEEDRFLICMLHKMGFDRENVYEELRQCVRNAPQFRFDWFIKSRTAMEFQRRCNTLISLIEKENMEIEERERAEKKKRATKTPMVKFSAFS
UniProt Q03468: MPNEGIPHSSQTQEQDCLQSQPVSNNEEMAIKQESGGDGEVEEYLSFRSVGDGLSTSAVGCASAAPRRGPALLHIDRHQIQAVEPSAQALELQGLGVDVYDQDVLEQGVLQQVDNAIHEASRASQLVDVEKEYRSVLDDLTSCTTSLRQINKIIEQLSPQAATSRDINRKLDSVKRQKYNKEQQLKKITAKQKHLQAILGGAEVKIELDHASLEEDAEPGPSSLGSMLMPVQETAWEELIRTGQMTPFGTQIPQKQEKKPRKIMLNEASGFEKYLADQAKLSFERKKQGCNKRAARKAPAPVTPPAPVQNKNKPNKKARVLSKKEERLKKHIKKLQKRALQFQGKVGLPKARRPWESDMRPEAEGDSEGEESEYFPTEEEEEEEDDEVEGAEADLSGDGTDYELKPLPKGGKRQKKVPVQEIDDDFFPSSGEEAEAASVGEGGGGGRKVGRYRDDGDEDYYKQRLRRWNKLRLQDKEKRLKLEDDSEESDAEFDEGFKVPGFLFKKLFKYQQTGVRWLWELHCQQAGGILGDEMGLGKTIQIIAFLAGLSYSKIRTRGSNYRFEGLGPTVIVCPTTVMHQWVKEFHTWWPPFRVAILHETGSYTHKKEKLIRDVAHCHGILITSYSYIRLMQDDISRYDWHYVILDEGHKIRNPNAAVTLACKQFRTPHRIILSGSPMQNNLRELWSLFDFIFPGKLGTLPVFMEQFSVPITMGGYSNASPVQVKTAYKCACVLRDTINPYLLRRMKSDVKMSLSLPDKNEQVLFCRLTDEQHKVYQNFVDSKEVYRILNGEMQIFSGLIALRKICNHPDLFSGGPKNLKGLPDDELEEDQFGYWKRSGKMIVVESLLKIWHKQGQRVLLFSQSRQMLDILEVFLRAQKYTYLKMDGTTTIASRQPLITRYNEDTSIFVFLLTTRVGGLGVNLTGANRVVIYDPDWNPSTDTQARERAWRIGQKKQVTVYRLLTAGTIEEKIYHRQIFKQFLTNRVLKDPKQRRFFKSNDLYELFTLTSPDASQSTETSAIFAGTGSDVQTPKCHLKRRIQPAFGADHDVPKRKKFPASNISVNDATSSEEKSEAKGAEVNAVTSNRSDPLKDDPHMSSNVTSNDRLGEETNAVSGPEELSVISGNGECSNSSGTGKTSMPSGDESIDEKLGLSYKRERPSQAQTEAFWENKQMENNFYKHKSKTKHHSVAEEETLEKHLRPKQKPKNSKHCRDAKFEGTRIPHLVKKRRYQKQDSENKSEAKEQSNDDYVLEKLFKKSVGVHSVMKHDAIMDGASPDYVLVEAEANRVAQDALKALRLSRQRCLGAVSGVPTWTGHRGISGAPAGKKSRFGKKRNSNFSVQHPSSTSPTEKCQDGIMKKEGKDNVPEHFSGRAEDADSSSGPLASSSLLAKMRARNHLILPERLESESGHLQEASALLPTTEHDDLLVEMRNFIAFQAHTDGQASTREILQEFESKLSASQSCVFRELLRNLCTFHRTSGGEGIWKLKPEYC

The next assay has as its target T1, Myc-tagged CSTF1 (human) (UniProt Q05048).
T1 sequence: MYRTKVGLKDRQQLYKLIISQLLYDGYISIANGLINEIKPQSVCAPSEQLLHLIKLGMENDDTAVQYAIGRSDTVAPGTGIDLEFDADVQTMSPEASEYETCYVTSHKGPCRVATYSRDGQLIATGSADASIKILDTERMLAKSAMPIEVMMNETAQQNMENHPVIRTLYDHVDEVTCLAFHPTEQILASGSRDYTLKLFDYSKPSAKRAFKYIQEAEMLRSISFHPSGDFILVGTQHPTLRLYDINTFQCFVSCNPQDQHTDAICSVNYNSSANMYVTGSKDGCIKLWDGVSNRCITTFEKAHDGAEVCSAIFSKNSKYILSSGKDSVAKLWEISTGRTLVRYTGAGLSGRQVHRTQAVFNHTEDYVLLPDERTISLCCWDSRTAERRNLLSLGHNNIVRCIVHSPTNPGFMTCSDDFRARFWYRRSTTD

The target in another assay is T2, Myc-tagged HLTF (human) (UniProt Q14527).
T2 sequence: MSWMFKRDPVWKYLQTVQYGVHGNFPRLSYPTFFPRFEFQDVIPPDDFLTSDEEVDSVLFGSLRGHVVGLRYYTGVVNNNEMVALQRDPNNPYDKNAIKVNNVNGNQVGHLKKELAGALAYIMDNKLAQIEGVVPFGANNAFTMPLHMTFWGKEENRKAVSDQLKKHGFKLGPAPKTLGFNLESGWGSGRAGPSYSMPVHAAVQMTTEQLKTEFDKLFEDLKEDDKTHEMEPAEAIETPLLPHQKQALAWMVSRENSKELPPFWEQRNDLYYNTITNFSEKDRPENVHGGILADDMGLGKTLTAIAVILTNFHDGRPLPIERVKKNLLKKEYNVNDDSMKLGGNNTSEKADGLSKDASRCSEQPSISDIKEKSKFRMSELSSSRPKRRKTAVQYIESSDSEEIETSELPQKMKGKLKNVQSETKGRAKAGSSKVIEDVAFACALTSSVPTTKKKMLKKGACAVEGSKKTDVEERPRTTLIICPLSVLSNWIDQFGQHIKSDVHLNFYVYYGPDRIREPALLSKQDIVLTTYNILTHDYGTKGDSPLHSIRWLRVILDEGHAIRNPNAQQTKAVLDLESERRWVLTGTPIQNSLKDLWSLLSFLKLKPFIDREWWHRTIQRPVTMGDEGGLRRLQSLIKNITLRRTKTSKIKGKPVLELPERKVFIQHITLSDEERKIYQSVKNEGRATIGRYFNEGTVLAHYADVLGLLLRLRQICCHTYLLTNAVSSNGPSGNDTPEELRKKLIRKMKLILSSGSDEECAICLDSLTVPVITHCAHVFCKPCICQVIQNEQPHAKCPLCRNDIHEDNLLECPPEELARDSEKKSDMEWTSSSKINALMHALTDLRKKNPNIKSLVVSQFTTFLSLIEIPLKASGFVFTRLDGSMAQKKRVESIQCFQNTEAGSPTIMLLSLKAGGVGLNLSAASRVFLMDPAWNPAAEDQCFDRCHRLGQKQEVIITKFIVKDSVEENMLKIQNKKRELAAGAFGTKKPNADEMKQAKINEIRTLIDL

For another assay, the target named is T3, Myc-tagged PRPF3 (human) (UniProt O43395).
T3 sequence: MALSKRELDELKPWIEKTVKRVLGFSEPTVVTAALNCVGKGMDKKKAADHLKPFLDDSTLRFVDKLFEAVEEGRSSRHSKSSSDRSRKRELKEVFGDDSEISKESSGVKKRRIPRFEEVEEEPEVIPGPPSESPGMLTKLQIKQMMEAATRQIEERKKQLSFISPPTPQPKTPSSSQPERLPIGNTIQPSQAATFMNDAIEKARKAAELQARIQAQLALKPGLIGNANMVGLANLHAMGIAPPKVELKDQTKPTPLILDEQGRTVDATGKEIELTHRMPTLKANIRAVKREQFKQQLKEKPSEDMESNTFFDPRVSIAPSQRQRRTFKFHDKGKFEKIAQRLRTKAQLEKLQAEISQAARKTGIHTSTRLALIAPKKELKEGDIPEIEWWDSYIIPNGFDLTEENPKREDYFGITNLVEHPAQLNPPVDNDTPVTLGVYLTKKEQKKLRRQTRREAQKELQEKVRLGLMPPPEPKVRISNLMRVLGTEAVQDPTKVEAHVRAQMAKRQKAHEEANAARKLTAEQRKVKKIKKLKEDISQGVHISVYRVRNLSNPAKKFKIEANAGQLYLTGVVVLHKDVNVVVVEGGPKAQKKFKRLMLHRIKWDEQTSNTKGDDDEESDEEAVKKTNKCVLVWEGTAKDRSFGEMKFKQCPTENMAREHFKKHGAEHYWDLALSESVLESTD

Assay [1] has as its target Myc-tagged SMARCA1 (human) (UniProt P28370).

No constants are given. Whether binding was seen depends on the method and setting. In cells and extracts the contact can be indirect. Some entries that bind do so weakly or less than the wild type. For some of these results: Sequences can lack the tags named with a protein.

Regarding “Flag-tagged CSB (from UniProt Q03468 1-1493)”, the binding result is “binds” with Myc-tagged CSTF1 (human); “no binding” with Myc-tagged HLTF (human); “binds” with Myc-tagged PRPF3 (human); “no binding” in the assay with Myc-tagged PSMD2 (human); “binds” in assay [1]; “binds” with Myc-tagged DDX17 (human). Besides, in the assay with Myc-tagged MTA2 (human), the binding result is listed as “binds”.

The record behind these values is paper PMC4451243.
